Measured values published in article PMC10774338.
Residue numbers refer to the chain shown, from its start. No constants are given. Whether binding was seen depends on the method and setting. In cells and extracts the contact can be indirect. Some results given as binding are weak or reduced against the parent protein; the word gives no strength. Tags and fused reporters may be left off the sequences shown.

Sequences of proteins named here, by UniProt entry; tags and fusion partners are left off.
UniProt P62491: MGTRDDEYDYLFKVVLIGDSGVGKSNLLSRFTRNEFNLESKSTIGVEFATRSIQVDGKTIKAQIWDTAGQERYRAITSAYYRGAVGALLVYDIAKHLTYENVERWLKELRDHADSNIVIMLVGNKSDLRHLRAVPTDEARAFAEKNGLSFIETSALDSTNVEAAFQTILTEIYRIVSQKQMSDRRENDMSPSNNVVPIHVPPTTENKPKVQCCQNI

Columns and labels:
[1] = molecular target: T1, Myc-tagged WDR44 N840S (human) (UniProt Q5JSH3); test: co-IP; GFP-RAB11A and Myc-WDR44 wild-type or variant coexpressed in 293T for 48 h; Myc-tagged proteins immunoprecipitated from lysate (150 mM NaCl, 20 mM Tris HCl pH 8.0, 10% glycerol, 1% Triton X-100; Protein G Sepharose), blots probed for GFP and Myc; also done after 3 h and 24 h serum starvation (wild-type, G782C, S764F)
T1 sequence: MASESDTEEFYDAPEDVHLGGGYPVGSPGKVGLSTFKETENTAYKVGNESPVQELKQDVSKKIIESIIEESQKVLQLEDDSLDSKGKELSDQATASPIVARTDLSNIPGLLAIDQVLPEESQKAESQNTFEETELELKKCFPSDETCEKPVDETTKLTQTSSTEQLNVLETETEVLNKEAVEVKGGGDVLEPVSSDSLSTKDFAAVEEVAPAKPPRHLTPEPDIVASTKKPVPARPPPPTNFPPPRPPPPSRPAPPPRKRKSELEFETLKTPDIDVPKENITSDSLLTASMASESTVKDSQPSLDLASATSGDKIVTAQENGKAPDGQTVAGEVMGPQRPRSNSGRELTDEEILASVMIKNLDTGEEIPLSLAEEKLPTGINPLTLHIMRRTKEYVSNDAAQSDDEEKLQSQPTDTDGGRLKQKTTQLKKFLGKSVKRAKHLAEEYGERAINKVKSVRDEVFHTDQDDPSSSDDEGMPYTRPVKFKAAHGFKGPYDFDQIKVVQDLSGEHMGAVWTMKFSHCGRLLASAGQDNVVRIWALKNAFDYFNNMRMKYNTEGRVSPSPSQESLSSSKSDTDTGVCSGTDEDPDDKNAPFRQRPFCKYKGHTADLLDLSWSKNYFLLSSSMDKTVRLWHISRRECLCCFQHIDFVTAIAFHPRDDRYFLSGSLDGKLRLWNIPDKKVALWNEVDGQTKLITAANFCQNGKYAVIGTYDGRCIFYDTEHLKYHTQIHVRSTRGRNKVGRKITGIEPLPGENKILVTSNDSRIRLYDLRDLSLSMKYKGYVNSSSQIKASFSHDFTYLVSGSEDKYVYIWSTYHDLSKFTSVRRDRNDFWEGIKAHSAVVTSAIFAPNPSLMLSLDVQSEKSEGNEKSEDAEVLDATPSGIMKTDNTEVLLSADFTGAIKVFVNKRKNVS

[2] = molecular target: T2, Myc-tagged WDR44 S764F (human) (UniProt Q5JSH3); test: as above
T2 sequence: T1 sequence with S764F, S840N

- binding [1]: binds
- binding [2]: binds
Substance: GFP-tagged RAB11A (from UniProt P62491 1-216)
